In this test the target is Flag-tagged IBV N protein (expressed in HEK-293T cells) (infectious bronchitis virus (IBV), Beaudette strain) (UniProt P69596). Put plainly: affinity purification with mass spectrometry.

Amino acid sequences for entries named in this document (tags omitted).
UniProt P69596: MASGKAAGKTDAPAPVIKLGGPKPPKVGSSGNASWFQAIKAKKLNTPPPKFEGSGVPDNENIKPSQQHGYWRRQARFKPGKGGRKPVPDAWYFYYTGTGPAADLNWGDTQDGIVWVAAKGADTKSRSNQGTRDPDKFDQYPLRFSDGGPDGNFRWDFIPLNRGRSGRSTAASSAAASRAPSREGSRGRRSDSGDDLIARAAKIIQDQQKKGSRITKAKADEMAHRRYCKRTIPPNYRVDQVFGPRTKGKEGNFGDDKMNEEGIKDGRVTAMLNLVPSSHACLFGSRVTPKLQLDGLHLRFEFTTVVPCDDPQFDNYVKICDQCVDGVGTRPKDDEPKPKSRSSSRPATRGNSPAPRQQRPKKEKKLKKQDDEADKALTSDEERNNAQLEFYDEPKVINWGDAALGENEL
UniProt Q14739: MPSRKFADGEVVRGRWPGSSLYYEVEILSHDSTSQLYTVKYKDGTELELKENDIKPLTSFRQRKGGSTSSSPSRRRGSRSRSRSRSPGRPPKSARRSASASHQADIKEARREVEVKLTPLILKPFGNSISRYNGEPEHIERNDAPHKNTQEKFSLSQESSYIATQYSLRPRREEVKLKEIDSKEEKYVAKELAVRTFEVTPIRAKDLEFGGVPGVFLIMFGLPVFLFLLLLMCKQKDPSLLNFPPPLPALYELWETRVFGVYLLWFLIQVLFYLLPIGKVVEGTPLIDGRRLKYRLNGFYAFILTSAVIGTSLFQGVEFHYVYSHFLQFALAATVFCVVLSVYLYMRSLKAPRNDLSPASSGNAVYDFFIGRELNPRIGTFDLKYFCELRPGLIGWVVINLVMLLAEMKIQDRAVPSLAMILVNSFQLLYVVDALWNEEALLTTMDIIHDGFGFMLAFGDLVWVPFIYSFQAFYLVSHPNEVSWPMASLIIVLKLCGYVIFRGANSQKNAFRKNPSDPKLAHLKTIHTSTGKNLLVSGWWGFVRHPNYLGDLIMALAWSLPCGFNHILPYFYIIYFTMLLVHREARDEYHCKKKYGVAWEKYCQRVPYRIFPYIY
UniProt P20700: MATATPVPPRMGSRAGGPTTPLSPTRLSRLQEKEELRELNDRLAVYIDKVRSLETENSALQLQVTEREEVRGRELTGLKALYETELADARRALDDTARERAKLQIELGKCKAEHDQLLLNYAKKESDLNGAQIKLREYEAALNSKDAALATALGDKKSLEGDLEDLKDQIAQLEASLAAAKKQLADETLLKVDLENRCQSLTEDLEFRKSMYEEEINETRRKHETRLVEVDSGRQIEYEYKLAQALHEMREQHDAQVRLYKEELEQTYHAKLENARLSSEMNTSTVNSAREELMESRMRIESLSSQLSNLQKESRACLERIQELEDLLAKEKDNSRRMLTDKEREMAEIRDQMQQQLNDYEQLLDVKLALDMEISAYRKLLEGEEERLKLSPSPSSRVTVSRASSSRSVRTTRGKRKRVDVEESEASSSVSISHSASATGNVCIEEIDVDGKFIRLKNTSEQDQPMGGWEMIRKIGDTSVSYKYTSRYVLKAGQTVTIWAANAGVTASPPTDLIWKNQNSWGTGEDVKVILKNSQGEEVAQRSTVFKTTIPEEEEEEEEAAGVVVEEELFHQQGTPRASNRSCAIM
UniProt Q96SB4: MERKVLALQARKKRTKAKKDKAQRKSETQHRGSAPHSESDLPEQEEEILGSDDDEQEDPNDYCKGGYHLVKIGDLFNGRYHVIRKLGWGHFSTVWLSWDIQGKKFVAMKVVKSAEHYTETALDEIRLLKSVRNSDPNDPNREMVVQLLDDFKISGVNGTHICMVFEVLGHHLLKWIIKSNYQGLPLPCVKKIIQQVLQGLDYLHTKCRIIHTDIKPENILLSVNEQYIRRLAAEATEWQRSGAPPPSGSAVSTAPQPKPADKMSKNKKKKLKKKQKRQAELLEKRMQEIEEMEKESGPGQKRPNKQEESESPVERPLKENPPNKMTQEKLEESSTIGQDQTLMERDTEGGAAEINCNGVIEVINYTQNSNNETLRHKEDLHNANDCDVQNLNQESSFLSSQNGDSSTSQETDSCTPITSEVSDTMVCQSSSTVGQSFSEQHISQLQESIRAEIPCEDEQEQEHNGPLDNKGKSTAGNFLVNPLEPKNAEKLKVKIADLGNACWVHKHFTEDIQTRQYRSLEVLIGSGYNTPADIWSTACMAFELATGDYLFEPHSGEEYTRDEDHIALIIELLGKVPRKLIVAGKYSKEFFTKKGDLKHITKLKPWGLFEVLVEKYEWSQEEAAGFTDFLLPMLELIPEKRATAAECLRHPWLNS

These are yes or no findings as the source states them, for the method shown. In cells and extracts the contact can be indirect. A yes stands for co-enrichment or nearness to the bait. Other partners may have been found.

On to “LBR (Lamin B receptor) (from UniProt Q14739 1-615)”, for which the binding result is “binds”.

As to “LMNB1 (Lamin B1) (from UniProt P20700 1-586)”, the binding result was “binds”.

Consider “SRPK1 (SRSF protein kinase 1) (from UniProt Q96SB4 1-655) (enzyme)”, for which the binding entry was “binds”.

These data come from paper PMC11633972.
